Measured values published in article PMC7248105, “Photoinduced monooxygenation involving NAD(P)H-FAD sequential single-electron transfer” (Nature Communications, 2020).
These are yes or no findings as the source states them, for the method shown.

Molecular target: PqsL (flavoprotein monooxygenase, wild type) (Pseudomonas aeruginosa) (UniProt Q9HWJ1)
Test: condition: only at high NaCl concentrations (150 mM NaCl in the methods); SEC; analytical gel filtration, Superdex 200 Increase 10/300 GL, 20 mM tris-HCl pH 8.5, 150 mM NaCl, 12 °C, calibrated with Bio-Rad standard; both purified

B1: PqsL (flavoprotein monooxygenase, wild type) (enzyme, Pseudomonas aeruginosa)
chain: MTDNHIDVLINGCGIGGAMLAYLLGRQGHRVVVVEQARRERAINGADLLKPAGIRVVEAAGLLAEVTRRGGRVRHELEVYHDGELLRYFNYSSVDARGYFILMPCESLRRLVLEKIDGEATVEMLFETRIEAVQRDERHAIDQVRLNDGRVLRPRVVVGADGIASYVRRRLLDIDVERRPYPSPMLVGTFALAPCVAERNRLYVDSQGGLAYFYPIGFDRARLVVSFPREEARELMADTRGESLRRRLQRFVGDESAEAIAAVTGTSRFKGIPIGYLNLDRYWADNVAMLGDAIHNVHPITGQGMNLAIEDASALADALDLALRDACALEDALAGYQAERFPVNQAIVSYGHALATSLEDRQRFAGVFDTALQGSSRTPEALGGERSYQPVRSPAPLG
notes: PqsL, FAD-dependent monooxygenase of alkyl quinolone N-oxide biosynthesis, Pseudomonas aeruginosa; the crystal models hold residues 3-370; One protomer is written; also called Wild-type PqsL; FPMO PqsL; source: E. coli LMG194 (pHERD30T), purified (Ni-NTA, Resource Q anion exchange)
**Q.** Which binding does the source give for B1 here?
**A.** no binding
